From patent US9822148B2 (HOYA CORPORATION, priority 2012, dated 2017)
End groups of sequences in plain letters are not given here.

Test: peptide made by a vendor
Conditions: whole synthesis

In the case of GAASRTYLHELI (Random peptide), the “final HPLC purity” value is reported as 90%<.
